Results deposited as PubChem BioAssay AID1053208 (Peter MacCallum Cancer Centre, 2014).
Screen: 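Find knock-downs that sensitise mouse osteosarcoma cells to doxorubicin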 (primary screen). Cells: mouse osteosarcoma cells, early-passage culture from an engineered mouse model of fibroblastic bone tumour. Knock-down reagent: siRNA pool against mouse genes, 40 nM. Timing: about 120 h (48 h before drug, then 72 h with drug). Conditions: doxorubicin 100 nM for 72 h, roughly 30-40% inhibitory dose. Read-out: 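Luminescent ATP signal taken as viability with or without 100 nM doxorubicin for 72 h; mean of two wells set against non-targeting siRNA and turned into robust z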. Reading the numbers: viability z-score with doxorubicin: higher = more viable cells under doxorubicin; viability z-score without drug: higher = more viable cells with knock-down alone. Call rule: 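Called active if knock-down leaves viability unchanged without drug (z within -2 to 2) but lowers it with doxorubicin (z at or under -2)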.
Shown is a random part of about 17,000 reagents. 788 of all reagents (4.7%) count as active. 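Calls rest on z-score classes alone; an extra cut-off of viability at most 70% of control was not applied to them.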 Reagents against one gene are numbered here. Not all columns of the deposit are shown.

no.	target	pool no.	combined z-score class	viability z-score with doxorubicin	viability z-score without drug	activity call
1	Cd59b	1	low cell count with and without drug	-2.02	-2.53	inactive
2	Smndc1	1	no change with or without drug	1.46	0.67	inactive
3	Cphx1	1	no change with or without drug	0.45	0.51	inactive
4	Adam26a	1	no change with or without drug	-0.11	0.51	inactive
5	Gdpd1	1	no change with or without drug	1.12	0.51	inactive
6	Cd2bp2	1	no change with or without drug	1.24	0.51	inactive
7	Bud13	1	no change with or without drug	0.67	0.17	inactive
8	Ms4a6d	1	low cell count without drug only	-1.91	-2.02	inactive
9	Ms4a6d	2	no change with or without drug	-0.34	-0.34	inactive
10	Homer1	1	no change with or without drug	0.45	0.84	inactive
11	Pdc	1	no change with or without drug	-0.67	0.67	inactive
12	Napb	1	no change with or without drug	0.9	0.51	inactive
13	AW551984	1	no change with or without drug	1.91	1.52	inactive
14	Cks2	1	no change with or without drug	0.11	0.51	inactive
15	Tsnax	1	no change with or without drug	-1.8	-1.52	inactive
16	Dgke	1	no change with or without drug	0	-1.18	inactive
17	Fblim1	1	no change with or without drug	-0.56	0.34	inactive
18	Vmn1r237	1	no change with or without drug	-1.35	0.34	inactive
19	Arhgap1	1	no change with or without drug	-1.35	0.84	inactive
20	Clec12a	1	low cell count with doxorubicin only	-2.25	-1.18	active
